The target in the assay is Forkhead box O (FoxO)3a (rat (endogenous in primary neonatal rat cardiomyocytes)) (UniProt D3ZBQ1). Nature of the assay: co-IP; extracted proteins of cardiomyocytes incubated with primary antibody (anti-FoxO3a or PARP1) overnight at 4 °C; magnetic beads for 4 h; washed with RIPA lysis buffer; Western blot.

By UniProt entry, the sequences of proteins in these tests, tags left out.
UniProt D3ZBQ1: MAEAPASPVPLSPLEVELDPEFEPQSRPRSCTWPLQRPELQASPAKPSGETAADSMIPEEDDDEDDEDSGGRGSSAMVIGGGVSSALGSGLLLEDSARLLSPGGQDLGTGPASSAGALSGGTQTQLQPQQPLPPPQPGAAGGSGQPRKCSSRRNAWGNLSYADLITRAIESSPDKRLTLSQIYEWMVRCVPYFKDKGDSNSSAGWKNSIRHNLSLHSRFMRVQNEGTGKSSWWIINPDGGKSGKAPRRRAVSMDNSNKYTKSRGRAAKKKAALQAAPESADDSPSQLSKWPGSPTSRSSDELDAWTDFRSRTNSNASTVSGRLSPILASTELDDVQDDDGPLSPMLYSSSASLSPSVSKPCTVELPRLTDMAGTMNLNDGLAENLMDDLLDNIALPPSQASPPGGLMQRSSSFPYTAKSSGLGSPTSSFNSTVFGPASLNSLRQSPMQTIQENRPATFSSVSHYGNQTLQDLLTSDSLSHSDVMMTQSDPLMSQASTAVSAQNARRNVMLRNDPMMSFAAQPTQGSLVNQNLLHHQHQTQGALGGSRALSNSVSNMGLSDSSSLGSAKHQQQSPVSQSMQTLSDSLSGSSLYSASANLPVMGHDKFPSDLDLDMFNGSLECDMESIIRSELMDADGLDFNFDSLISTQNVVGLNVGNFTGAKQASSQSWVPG
UniProt P27008: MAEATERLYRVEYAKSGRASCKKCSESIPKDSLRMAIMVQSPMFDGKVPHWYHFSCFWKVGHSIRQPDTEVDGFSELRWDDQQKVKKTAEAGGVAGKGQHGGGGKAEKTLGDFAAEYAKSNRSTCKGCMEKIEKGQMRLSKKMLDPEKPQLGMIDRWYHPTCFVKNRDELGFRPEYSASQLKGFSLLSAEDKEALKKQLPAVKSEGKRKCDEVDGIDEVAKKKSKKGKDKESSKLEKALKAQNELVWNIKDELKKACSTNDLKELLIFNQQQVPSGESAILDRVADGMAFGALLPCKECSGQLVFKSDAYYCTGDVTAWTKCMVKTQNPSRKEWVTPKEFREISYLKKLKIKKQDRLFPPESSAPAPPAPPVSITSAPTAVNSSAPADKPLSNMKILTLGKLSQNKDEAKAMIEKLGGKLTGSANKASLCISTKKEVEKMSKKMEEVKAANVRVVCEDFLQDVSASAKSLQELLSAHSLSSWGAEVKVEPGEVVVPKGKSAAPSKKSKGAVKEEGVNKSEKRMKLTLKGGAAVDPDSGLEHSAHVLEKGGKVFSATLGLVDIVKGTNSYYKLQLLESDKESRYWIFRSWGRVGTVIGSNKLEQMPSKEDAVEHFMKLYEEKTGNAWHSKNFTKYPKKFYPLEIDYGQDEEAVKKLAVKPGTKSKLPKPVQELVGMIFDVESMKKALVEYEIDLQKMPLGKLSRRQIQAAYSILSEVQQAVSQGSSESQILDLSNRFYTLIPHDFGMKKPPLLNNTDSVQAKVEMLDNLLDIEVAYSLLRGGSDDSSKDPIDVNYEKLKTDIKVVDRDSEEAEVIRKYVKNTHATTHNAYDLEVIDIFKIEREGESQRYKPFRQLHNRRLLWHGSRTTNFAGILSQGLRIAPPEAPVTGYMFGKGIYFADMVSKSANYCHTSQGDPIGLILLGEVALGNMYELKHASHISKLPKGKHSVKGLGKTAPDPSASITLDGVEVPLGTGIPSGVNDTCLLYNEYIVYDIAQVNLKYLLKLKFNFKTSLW

These are yes or no findings as the source states them, for the method shown. Binding seen in cells or lysates may run through a third protein. Some binding calls cover weakened binding; strength is not graded here.

Regarding “poly(ADP-ribose) polymerase-1 (from UniProt P27008 1-1014) (enzyme)”, the binding result is “binds”.
